Results taken from article PMC9063202 (2022).
These are yes or no findings as the source states them, for the method shown. In cells and extracts the contact can be indirect. Binding can be weak; no strength is given.

Amino acid sequences for entries named in this document (tags omitted). A change or cut given only in a name is not applied to a line headed by its entry.
UniProt Q8NAU1: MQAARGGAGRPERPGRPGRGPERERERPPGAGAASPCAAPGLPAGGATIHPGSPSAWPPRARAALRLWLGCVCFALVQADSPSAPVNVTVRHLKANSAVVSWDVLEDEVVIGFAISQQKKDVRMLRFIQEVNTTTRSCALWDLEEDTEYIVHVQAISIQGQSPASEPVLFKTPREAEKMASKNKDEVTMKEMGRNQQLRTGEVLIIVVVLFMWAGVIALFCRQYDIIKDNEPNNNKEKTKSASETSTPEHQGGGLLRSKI

Biological target: T1, TRPC3 overexpressed in 293T cells (UniProt Q13507)
T1 sequence: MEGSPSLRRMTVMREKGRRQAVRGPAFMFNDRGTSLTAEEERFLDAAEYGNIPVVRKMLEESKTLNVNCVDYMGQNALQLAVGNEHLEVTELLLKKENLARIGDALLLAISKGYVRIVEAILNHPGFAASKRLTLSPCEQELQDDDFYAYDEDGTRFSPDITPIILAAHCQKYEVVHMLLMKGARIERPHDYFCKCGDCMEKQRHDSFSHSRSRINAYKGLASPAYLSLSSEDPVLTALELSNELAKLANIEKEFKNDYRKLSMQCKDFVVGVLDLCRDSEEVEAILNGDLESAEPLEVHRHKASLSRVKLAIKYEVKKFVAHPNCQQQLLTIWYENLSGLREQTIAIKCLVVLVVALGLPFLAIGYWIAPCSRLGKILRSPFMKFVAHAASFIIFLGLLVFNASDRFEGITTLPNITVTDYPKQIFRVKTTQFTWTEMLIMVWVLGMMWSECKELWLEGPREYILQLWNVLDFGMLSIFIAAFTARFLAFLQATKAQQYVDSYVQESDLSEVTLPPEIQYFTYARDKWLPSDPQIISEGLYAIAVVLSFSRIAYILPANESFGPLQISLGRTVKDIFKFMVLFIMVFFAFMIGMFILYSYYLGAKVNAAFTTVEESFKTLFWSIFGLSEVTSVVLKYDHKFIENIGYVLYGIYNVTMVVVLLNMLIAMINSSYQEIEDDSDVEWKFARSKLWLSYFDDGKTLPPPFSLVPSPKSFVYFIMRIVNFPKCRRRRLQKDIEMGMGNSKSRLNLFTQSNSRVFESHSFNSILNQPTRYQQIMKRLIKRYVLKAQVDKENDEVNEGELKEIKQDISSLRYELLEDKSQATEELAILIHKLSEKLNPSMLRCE
Experiment: co-IP; 293T cells transfected with TRPC3 plasmid and treated with IRISIN protein 100 ng/ul; lysate precipitated with TRPC3 antibody coupled to magnetic beads (Pierce Co-IP kit), 2 h at room temperature; western blot; only the binder purified

IRISIN protein (human recombinant IRISIN) (from UniProt Q8NAU1) (ligand)
binding: binds
